Source: US7469185B2, “Primary rat hepatocyte toxicity modeling” (Ocimum Biosolutions, Inc., priority 2002, dated 2008)

System: primary rat hepatocytes
Assay: Microarray gene expression analysis (Affymetrix rat array) of toxin-exposed hepatocytes, with linear discriminant score
Assay type: cell-based
Details: 24 hrs, high dose
Procedure: Identification of toxicity markers was performed by microarray analysis and by the AlamarBlue® assay, a classical measure of cytotoxicity. The AlamarBlue® assay was performed in triplicate.
The source of the primary rat hepatocytes was Sprague Dawley Outbred CDs Rats (CRL:CD®[SD] IGS BR, Charles River Laboratories). […] Primary rat hepatocytes were received the day after the cells were removed from the animals. After arrival, the cells, the cells were incubated overnight (˜15 hrs) before the toxin was added to the cultures. […] Toxin or vehicle was administered to hepatocyte cultures as follows. For each treatment, i.e., vehicle alone, vehicle+toxin at low dose, or vehicle+toxin at high dose, cells were harvested after 3, 6 and 24-hour incubations with the toxin solution or with the vehicle.
More than 10^7 cells are typically prepared for each sample. RNA was collected at 3, 6 and 24 hours following addition of the toxin according to the following procedure.
Each flask contained ˜10-20 million cells. The contents of each flask were mixed vigorously for one minute with a vortex mixer and then aspirated up and down 5 times with a pipette. The contents of each flask (˜12 ml each) was collected into a 50 ml conical polypropylene tissue culture tube (Falcon), snap frozen in liquid nitrogen and stored at ≦−86° C.
Microarray sample preparation was conducted with minor modifications, following the protocols set forth in the Affymetrix GeneChip® Expression Analysis Manual. Frozen cells were ground to a powder using a Spex Certiprep 6800 Freezer Mill. Total RNA was extracted with Trizol (GibcoBRL) utilizing the manufacturer's protocol. […] Double stranded cDNA was generated from mRNA using the SuperScript Choice system (GibcoBRL). First strand cDNA synthesis was primed with a T7-(dT24) oligonucleotide. The cDNA was phenol-chloroform extracted and ethanol precipitated to a final concentration of […]. From 2 μg of cDNA, cRNA was synthesized using Ambion's T7 MegaScript in vitro Transcription Kit.
To biotin label the cRNA, nucleotides Bio-11-CTP and Bio-16-UTP (Enzo Diagnostics) were added to the reaction. Following a 37° C. incubation for six hours, impurities were removed from the labeled cRNA following the RNeasy Mini kit protocol (Qiagen). cRNA was fragmented (fragmentation buffer consisting of 200 mM Tris-acetate, pH 8.1, 500 mM KOAc, 150 mM MgOAc) for thirty-five minutes at 94° C. Following the Affymetrix protocol, 55 μg of fragmented cRNA was hybridized on the Affymetrix rat array set for twenty-four hours at 60 rpm in a 45° C. hybridization oven. The chips were washed and stained with Streptavidin Phycoerythrin (SAPE) (Molecular Probes) in Affymetrix fluidics stations. To amplify staining, SAPE solution was added twice with an anti-streptavidin biotinylated antibody (Vector Laboratories) staining step in between. Hybridization to the probe arrays was detected by fluorometric scanning (Hewlett Packard Gene Array Scanner). Data was analyzed using Affymetrix GeneChip® version 3.0 and Expression Data Mining Tool (EDMT) software (version 1.0), S-Plus, and the GeneExpress® software system.
Each gene is identified by its Gene Logic identification number and can be cross-referenced to a gene name and representative SEQ ID NO. in Table 1.

CCCCc1oc2ccccc2c1C(=O)c1cc(I)c(OCCN(CC)CC)c(I)c1 [Amiodarone]
Mean Tox, GLGC ID NO. 16496: 405.5363 | Mean Tox, GLGC ID NO. 16524: 85.1848 | Mean Tox, GLGC ID NO. 16650: 984.8695 | Mean Tox, GLGC ID NO. 16708: 153.2685 | Mean Tox, GLGC ID NO. 16865: 290.6443 | Mean Tox, GLGC ID NO. 16895: 8.7830 | Mean Tox, GLGC ID NO. 16947: 89.0373 | Mean Tox, GLGC ID NO. 17039: 245.4835 | Mean Tox, GLGC ID NO. 17271: 48.2335 | Mean Tox, GLGC ID NO. 17604: 154.1105 | Mean Tox, GLGC ID NO. 17754: 861.7003 | Mean Tox, GLGC ID NO. 17999: 430.8943 | Mean Tox, GLGC ID NO. 18069: 119.5903 | Mean Tox, GLGC ID NO. 18578: 365.2230 | Mean Tox, GLGC ID NO. 18612: 388.6913 | Mean Tox, GLGC ID NO. 18725: 15.4600 | Mean Tox, GLGC ID NO. 18730: 259.6305 | Mean Tox, GLGC ID NO. 18765: 188.8203 | Mean Tox, GLGC ID NO. 18800: 585.7013 | Mean Tox, GLGC ID NO. 18881: 33.6695 | Mean Tox, GLGC ID NO. 18883: 127.7325 | Mean Tox, GLGC ID NO. 18909: 67.8935 | Mean Tox, GLGC ID NO. 19059: 81.7113 | Mean Tox, GLGC ID NO. 19101: 282.6973 | Mean Tox, GLGC ID NO. 19144: 23.3323 | Mean Tox, GLGC ID NO. 19177: 116.8100 | Mean Tox, GLGC ID NO. 19206: 90.8053 | Mean Tox, GLGC ID NO. 19226: 314.5943 | Mean Tox, GLGC ID NO. 19227: 237.5478 | Mean Tox, GLGC ID NO. 19555: 116.1578 | Mean Tox, GLGC ID NO. 19631: 102.9018 | Mean Tox, GLGC ID NO. 19679: 19.2213 | Mean Tox, GLGC ID NO. 20405: 39.4923 | Mean Tox, GLGC ID NO. 20421: 96.5418 | Mean Tox, GLGC ID NO. 20586: 20.1963 | Mean Tox, GLGC ID NO. 20698: 10.6448 | Mean Tox, GLGC ID NO. 20700: 938.3848 | Mean Tox, GLGC ID NO. 20745: 1186.4775 | Mean Tox, GLGC ID NO. 20746: 1890.1518 | Mean Tox, GLGC ID NO. 20778: 113.9043 | Mean Tox, GLGC ID NO. 20960: 936.4035 | Mean Tox, GLGC ID NO. 20971: 152.5923 | Mean Tox, GLGC ID NO. 21001: 253.3903 | Mean Tox, GLGC ID NO. 21350: 59.4465 | Mean Tox, GLGC ID NO. 21842: 1093.5040 | Mean Tox, GLGC ID NO. 21882: 375.2395 | Mean Tox, GLGC ID NO. 21885: 125.6663 | Mean Tox, GLGC ID NO. 22079: 1171.8738 | Mean Tox, GLGC ID NO. 22387: 1501.9503 | Mean Tox, GLGC ID NO. 22413: 1529.8625 | Mean Tox, GLGC ID NO. 22586: 142.2270 | Mean Tox, GLGC ID NO. 22746: 17.7768 | Mean Tox, GLGC ID NO. 22801: 437.7643 | Mean Tox, GLGC ID NO. 22883: 196.2880 | Mean Tox, GLGC ID NO. 23162: 84.0273 | Mean Tox, GLGC ID NO. 23192: 202.7878 | Mean Tox, GLGC ID NO. 23200: 229.5073 | Mean Tox, GLGC ID NO. 23324: 199.6150 | Mean Tox, GLGC ID NO. 23343: 85.2673 | Mean Tox, GLGC ID NO. 23660: 451.7370 | Mean Tox, GLGC ID NO. 23808: 130.0633 | Mean Tox, GLGC ID NO. 24105: 80.1058 | Mean Tox, GLGC ID NO. 24326: 1265.2950 | Mean Tox, GLGC ID NO. 24362: 414.5140 | Mean Tox, GLGC ID NO. 24453: 8.2448 | Mean Tox, GLGC ID NO. 24645: 39.1603 | Mean Tox, GLGC ID NO. 24670: 39.2255 | Mean Tox, GLGC ID NO. 24693: 5.9428 | Mean Tox, GLGC ID NO. 25204: 20.8115 | Mean Tox, GLGC ID NO. 25325: 104.6418 | Mean Tox, GLGC ID NO. 25326: 879.7590 | Mean Tox, GLGC ID NO. 25694: 27.6885 | Mean Tox, GLGC ID NO. 25799: 573.4228 | Mean Tox, GLGC ID NO. 26032: 67.3053
